These are yes or no findings as the source states them, for the method shown. In cells and extracts the contact can be indirect. Some entries that bind do so weakly or less than the wild type. For some assays here: Where a sequence is shown, tags or fusion partners need not be part of it. Blank lines part the entries; values can stand above or below the molecule they belong to.
Key:
[1] = biological target: murine Wnt3a (mouse) (UniProt P27467); test: pull-down; murine Wnt3a covalently immobilised on magnetic Dynabeads, added to live metaphase HeLa cells; lysis in 75 mM Na-HEPES pH 7.5, 0.15 M KCl, 0.2% NP-40 without clearing, magnetic isolation, 3 washes; immunoblot; BSA-coated beads as control; only the target purified
[2] = biological target: LRP6-M5 mutant (EGFP-tagged, sh-resistant) (human) (UniProt O75581); test: co-IP; anti-GFP mAb-agarose beads on mitotic lysate of HeLa cells (shLRP6) transfected with pEGFP-N1-LRP6-WT or M5, treated with Wnt3a-conditioned medium; 150 mM KCl, 0.2% NP-40, 2 h at 4 °C; immunoblot
[3] = biological target: LRP6-FLAG-APEX2 (UniProt O75581); test: condition: only cells treated with DKK1-conditioned medium (Wnt-OFF); co-IP; anti-FLAG M2 beads on mitotic lysate of HeLa clone expressing LRP6-FLAG-APEX2, cells treated with DKK1-conditioned medium (Wnt-OFF) for 3 h; 150 mM KCl, 0.2% NP-40, 4 h at 4 °C; immunoblot
[4] = biological target: sh-resistant EGFP-tagged LRP6 wild-type (human) (UniProt O75581); test: co-IP; anti-GFP mAb-agarose beads on mitotic lysate of HeLa cells (shLRP6) transfected with pEGFP-N1-LRP6-WT or M5, treated with Wnt3a-conditioned medium; 150 mM KCl, 0.2% NP-40, 2 h at 4 °C; immunoblot
[5] = biological target: LRP6-FLAG-APEX2 (UniProt O75581); test: co-IP; anti-FLAG M2 beads on mitotic lysate of HeLa clone expressing LRP6-FLAG-APEX2, cells treated with Wnt3a-conditioned medium (Wnt-ON) for 3 h; 150 mM KCl, 0.2% NP-40, 4 h at 4 °C; immunoblot
[6] = biological target: T1, LRP6-FLAG-APEX2, O75581; test: as above; settings: remark: other sources report otherwise
T1 chain: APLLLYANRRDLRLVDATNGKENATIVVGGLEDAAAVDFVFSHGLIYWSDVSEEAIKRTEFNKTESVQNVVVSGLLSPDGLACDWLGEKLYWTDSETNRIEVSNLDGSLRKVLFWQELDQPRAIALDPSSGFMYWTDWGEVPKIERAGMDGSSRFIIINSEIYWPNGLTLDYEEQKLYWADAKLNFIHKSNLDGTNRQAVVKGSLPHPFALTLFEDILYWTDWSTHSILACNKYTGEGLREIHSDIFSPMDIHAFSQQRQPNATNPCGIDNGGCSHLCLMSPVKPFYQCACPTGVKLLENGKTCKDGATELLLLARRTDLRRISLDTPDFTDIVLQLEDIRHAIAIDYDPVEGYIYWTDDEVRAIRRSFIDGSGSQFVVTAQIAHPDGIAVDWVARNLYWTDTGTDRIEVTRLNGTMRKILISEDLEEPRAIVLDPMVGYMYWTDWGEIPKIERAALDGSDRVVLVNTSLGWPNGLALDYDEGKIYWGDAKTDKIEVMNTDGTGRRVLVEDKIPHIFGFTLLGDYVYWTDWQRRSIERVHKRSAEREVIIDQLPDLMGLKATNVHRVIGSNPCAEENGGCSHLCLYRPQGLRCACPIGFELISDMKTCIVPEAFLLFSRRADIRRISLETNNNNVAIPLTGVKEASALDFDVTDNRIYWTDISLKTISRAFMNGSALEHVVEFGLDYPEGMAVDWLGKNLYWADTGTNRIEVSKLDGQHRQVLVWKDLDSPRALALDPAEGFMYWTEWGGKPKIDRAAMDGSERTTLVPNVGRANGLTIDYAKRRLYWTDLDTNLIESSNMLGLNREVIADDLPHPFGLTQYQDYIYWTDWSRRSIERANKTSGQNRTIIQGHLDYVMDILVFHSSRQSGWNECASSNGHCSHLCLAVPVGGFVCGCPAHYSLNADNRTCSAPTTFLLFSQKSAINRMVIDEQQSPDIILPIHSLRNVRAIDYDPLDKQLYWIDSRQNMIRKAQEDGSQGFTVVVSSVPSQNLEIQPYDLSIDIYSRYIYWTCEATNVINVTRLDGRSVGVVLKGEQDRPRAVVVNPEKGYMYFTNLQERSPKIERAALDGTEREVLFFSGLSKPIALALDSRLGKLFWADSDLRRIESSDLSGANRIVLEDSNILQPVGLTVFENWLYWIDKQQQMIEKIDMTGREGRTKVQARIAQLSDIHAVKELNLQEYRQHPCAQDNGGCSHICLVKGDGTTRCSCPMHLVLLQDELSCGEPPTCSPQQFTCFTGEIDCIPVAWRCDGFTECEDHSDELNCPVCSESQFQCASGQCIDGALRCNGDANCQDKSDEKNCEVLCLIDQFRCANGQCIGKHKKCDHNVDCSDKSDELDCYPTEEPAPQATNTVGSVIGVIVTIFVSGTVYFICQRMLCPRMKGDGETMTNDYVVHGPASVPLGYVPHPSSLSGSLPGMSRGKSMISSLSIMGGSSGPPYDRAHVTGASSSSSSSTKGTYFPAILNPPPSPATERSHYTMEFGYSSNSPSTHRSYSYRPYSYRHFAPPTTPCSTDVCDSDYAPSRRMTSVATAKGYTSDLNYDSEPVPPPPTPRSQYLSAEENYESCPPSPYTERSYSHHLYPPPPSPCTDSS

By UniProt entry, the sequences of proteins in these tests, tags left out. Residues count along the entry.
UniProt P27467, residues 19-352: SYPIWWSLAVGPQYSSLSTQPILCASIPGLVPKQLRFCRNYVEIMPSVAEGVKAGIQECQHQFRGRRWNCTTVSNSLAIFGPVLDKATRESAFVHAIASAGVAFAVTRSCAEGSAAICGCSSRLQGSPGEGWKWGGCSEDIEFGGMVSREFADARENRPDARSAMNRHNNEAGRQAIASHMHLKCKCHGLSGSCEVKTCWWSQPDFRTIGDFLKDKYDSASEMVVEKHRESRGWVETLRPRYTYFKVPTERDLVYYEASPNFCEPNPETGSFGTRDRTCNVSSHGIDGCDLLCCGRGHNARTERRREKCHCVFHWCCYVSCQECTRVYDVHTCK
UniProt Q03135: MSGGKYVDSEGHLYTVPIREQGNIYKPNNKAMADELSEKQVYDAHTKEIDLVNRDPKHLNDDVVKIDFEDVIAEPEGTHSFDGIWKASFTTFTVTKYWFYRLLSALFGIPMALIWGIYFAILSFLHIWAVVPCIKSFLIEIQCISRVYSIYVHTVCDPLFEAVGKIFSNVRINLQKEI
UniProt O43795: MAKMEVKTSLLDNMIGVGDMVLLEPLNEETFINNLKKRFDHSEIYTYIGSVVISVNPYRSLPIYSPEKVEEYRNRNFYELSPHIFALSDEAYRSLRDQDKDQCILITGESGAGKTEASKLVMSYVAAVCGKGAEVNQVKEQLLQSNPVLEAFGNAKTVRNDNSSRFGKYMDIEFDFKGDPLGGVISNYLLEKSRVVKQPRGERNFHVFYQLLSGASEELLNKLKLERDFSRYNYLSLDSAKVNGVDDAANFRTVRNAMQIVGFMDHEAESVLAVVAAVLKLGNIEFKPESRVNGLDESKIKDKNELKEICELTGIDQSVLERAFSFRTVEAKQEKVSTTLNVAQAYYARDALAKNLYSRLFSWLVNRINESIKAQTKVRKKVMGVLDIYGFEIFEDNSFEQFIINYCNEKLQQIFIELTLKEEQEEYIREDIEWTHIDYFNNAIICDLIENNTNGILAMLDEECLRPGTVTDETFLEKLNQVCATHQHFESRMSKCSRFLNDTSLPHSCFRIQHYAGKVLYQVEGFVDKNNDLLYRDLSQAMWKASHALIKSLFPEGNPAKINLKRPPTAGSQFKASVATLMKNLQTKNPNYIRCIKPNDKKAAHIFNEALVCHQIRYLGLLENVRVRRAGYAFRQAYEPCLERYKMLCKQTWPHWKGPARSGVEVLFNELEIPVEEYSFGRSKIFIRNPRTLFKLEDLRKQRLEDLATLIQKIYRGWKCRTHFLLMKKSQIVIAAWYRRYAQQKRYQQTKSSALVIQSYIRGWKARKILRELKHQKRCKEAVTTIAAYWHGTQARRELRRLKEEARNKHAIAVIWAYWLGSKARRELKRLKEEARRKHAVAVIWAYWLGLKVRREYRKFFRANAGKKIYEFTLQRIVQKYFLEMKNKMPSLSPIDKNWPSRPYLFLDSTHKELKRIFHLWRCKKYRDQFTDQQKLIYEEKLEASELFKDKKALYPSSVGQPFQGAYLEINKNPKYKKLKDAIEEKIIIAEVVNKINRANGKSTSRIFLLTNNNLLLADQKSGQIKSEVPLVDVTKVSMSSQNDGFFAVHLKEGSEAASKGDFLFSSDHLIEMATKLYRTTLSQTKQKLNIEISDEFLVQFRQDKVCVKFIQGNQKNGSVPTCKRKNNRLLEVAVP
UniProt Q14980: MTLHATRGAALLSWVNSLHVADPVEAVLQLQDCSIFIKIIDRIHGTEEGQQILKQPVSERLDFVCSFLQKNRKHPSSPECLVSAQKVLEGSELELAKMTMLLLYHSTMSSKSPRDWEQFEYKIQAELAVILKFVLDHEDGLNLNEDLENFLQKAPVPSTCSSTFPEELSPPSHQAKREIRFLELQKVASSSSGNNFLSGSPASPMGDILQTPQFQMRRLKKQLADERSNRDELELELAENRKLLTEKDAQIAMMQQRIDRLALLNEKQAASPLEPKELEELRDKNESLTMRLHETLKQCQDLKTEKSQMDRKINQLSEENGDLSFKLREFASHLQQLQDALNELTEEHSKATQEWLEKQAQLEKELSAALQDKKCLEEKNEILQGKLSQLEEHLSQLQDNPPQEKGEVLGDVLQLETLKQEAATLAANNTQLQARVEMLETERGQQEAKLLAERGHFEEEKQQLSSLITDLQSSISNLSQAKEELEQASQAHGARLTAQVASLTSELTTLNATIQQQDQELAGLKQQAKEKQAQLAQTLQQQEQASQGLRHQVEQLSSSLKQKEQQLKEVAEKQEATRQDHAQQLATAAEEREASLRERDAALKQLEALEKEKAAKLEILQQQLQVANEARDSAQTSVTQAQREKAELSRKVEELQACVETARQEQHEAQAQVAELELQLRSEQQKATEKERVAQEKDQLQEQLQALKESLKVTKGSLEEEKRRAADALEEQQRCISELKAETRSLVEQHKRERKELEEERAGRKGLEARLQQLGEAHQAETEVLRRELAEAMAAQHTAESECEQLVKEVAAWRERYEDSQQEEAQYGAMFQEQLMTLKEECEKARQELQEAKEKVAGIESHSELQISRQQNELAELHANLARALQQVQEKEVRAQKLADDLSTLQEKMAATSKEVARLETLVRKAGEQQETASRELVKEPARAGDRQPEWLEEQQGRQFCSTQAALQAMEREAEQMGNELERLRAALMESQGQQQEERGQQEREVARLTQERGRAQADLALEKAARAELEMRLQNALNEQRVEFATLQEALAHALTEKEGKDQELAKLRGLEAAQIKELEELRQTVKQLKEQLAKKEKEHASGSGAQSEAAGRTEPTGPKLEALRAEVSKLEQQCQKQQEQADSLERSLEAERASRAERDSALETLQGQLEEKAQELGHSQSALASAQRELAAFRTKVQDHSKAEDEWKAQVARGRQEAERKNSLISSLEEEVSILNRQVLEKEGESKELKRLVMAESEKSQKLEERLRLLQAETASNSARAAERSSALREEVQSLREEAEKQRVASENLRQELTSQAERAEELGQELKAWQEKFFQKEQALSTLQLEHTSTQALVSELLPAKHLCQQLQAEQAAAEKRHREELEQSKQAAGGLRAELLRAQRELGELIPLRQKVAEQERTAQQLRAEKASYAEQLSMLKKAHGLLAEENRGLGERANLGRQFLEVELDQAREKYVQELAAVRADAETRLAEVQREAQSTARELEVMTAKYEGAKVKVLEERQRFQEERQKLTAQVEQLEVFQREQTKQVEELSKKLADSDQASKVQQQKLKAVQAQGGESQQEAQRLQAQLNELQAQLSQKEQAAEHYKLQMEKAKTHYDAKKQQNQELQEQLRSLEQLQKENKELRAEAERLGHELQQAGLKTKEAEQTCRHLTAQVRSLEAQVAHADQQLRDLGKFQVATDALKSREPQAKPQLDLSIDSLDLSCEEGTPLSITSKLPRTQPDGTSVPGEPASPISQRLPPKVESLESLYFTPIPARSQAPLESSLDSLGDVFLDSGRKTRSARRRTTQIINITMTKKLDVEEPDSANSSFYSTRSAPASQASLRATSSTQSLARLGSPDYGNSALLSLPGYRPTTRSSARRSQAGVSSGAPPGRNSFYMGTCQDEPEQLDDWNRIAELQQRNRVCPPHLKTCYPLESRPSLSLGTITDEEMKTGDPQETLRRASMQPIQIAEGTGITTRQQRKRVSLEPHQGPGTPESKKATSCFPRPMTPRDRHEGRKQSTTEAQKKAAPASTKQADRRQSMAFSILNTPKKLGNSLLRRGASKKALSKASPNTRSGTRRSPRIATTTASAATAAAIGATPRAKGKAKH

[7] = biological target: T2, sh-resistant EGFP-tagged LRP6 wild-type (human), O75581; test: co-IP; anti-GFP mAb-agarose beads on mitotic lysate of HeLa cells (shLRP6) transfected with pEGFP-N1-LRP6-WT or M5, treated with Wnt3a-conditioned medium; 150 mM KCl, 0.2% NP-40, 2 h at 4 °C; immunoblot; settings: remark: other sources report otherwise
T2 chain: T1 chain

- binding [1]: binds
Molecule: dynactin subunit p150^Glue (from UniProt Q14203-1 1-1278)

- binding [1]: binds
Molecule: caveolin-1 (from UniProt Q03135 1-178)

- binding [1]: binds
Molecule: MACF1 (from UniProt Q9UPN3 1-7388)

- binding [1]: binds
Molecule: myosin1B (from UniProt O43795 1-1136)

- binding [2]: no binding
- binding [3]: no binding
Molecule: β-catenin (from UniProt P35222 1-781)

- binding [1]: binds
- binding [4]: binds
- binding [2]: no binding
- binding [3]: no binding
- binding [5]: binds
Molecule: nuclear mitotic apparatus protein (NuMA) (from UniProt Q14980 1-2115)

- binding [1]: binds
B1: LGN (protein, UniProt P81274 1-684)
chain: MEENLISMREDHSFHVRYRMEASCLELALEGERLCKSGDCRAGVSFFEAAVQVGTEDLKTLSAIYSQLGNAYFYLHDYAKALEYHHHDLTLARTIGDQLGEAKASGNLGNTLKVLGNFDEAIVCCQRHLDISRELNDKVGEARALYNLGNVYHAKGKSFGCPGPQDVGEFPEEVRDALQAAVDFYEENLSLVTALGDRAAQGRAFGNLGNTHYLLGNFRDAVIAHEQRLLIAKEFGDKAAERRAYSNLGNAYIFLGEFETASEYYKKTLLLARQLKDRAVEAQSCYSLGNTYTLLQDYEKAIDYHLKHLAIAQELNDRIGEGRACWSLGNAYTALGNHDQAMHFAEKHLEISREVGDKSGELTARLNLSDLQMVLGLSYSTNNSIMSENTEIDSSLNGVRPKLGRRHSMENMELMKLTPEKVQNWNSEILAKQKPLIAKPSAKLLFVNRLKGKKYKTNSSTKVLQDASNSIDHRIPNSQRKISADTIGDEGFFDLLSRFQSNRMDDQRCCLQEKNCHTASTTTSSTPPKMMLKTSSVPVVSPNTDEFLDLLASSQSRRLDDQRASFSNLPGLRLTQNSQSVLSHLMTNDNKEADEDFFDILVKCQGSRLDDQRCAPPPATTKGPTVPDEDFFSLILRSQGKRMDEQRVLLQRDQNRDTDFGLKDFLQNNALLEFKNSGKKSADH

- binding [6]: binds
- binding [7]: binds
B2: β-catenin, P35222 1-781 (protein)
chain: MATQADLMELDMAMEPDRKAAVSHWQQQSYLDSGIHSGATTTAPSLSGKGNPEEEDVDTSQVLYEWEQGFSQSFTQEQVADIDGQYAMTRAQRVRAAMFPETLDEGMQIPSTQFDAAHPTNVQRLAEPSQMLKHAVVNLINYQDDAELATRAIPELTKLLNDEDQVVVNKAAVMVHQLSKKEASRHAIMRSPQMVSAIVRTMQNTNDVETARCTAGTLHNLSHHREGLLAIFKSGGIPALVKMLGSPVDSVLFYAITTLHNLLLHQEGAKMAVRLAGGLQKMVALLNKTNVKFLAITTDCLQILAYGNQESKLIILASGGPQALVNIMRTYTYEKLLWTTSRVLKVLSVCSSNKPAIVEAGGMQALGLHLTDPSQRLVQNCLWTLRNLSDAATKQEGMEGLLGTLVQLLGSDDINVVTCAAGILSNLTCNNYKNKMMVCQVGGIEALVRTVLRAGDREDITEPAICALRHLTSRHQEAEMAQNAVRLHYGLPVVVKLLHPPSHWPLIKATVGLIRNLALCPANHAPLREQGAIPRLVQLLVRAHQDTQRRTSMGGTQQQFVEGVRMEEIVEGCTGALHILARDVHNRIVIRGLNTIPLFVQLLYSPIENIQRVAAGVLCELAQDKEAAEAIEAEGATAPLTELLHSRNEGVATYAAAVLFRMSEDKPQDYKKRLSVELTSSLFRTEPMAWNETADLGLDIGAQGEPLGYRQDDPSYRSFHSGGYGQDALGMDPMMEHEMGGHHPGADYPVDGLPDLGHAQDLMDGLPPGDSNQLAWFDTDL

From article PMC12660846
